Source: PMC11523043
No constants are given. Whether binding was seen depends on the method and setting. In cells and extracts the contact can be indirect. Some entries that bind do so weakly or less than the wild type. Sequences can lack the tags named with a protein.

Assays:
Assay in all cases: co-IP; lysates of cells (HEK293, HeLa or H1299) transfected with the Flag-tagged bait, anti-Flag (M2) agarose, 4°C for 4 hours, 50 mmol/L Tris-HCl pH 8.0, 0.5% Nonidet P-40, 150 mmol/L NaCl; endogenous partner detected by IB; for Flag-USP36 also in the presence of 100 μg/mL RNase A and 100 U/mL RNase T1
[1] = molecular target: T1, Flag-Las1L^1-613 (UniProt Q9Y4W2)
T1 sequence: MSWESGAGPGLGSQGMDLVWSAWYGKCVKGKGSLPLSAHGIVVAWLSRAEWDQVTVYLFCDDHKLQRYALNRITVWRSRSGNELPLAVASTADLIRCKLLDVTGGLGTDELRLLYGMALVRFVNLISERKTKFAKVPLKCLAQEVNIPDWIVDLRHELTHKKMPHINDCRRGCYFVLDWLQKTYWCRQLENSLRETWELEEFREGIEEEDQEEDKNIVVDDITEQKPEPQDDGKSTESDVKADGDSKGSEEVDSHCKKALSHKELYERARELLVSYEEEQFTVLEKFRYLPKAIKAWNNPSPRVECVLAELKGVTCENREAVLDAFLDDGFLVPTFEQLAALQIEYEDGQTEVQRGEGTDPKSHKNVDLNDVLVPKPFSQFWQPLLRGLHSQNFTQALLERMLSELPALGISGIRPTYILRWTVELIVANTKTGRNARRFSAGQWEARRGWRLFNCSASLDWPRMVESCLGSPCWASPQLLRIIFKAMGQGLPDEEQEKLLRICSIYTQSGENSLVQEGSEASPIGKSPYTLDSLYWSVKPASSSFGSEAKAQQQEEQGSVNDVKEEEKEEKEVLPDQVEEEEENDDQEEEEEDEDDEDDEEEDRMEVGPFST

[2] = molecular target: T2, Flag-Nol9 (human) (UniProt Q5SY16)
T2 sequence: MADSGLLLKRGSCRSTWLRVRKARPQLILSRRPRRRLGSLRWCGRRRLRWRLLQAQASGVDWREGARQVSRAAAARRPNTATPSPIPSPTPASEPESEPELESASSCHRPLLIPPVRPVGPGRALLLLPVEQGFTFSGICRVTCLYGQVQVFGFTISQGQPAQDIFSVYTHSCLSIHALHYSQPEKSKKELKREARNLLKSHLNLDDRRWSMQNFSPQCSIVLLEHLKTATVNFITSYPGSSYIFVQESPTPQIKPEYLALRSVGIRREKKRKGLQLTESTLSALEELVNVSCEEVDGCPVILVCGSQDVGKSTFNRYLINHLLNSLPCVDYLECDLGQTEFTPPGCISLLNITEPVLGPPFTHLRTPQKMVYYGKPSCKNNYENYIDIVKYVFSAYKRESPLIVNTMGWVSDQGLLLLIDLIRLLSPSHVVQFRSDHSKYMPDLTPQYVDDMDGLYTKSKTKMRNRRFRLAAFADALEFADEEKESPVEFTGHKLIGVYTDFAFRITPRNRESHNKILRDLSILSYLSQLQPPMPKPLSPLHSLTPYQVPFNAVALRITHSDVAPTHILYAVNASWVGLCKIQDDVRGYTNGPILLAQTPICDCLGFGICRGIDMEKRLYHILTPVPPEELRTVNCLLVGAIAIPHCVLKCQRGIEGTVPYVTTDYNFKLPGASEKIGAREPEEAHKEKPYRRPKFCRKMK

[3] = molecular target: T3, Flag-Nol9^1-479 (human) (UniProt Q5SY16)
T3 sequence: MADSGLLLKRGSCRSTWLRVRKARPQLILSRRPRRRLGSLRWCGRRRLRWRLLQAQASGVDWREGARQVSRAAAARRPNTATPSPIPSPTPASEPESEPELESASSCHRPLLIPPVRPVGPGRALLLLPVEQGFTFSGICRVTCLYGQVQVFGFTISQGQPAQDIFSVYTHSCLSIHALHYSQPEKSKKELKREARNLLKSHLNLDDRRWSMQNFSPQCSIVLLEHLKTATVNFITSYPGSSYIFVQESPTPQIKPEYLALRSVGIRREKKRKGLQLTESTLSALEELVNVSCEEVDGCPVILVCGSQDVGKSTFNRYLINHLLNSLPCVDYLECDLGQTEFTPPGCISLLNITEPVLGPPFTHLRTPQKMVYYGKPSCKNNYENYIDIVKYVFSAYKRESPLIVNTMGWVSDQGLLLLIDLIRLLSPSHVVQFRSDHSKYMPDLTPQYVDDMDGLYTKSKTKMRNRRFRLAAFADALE

[4] = molecular target: T4, Flag-tagged Las1L (UniProt Q9Y4W2)
T4 sequence: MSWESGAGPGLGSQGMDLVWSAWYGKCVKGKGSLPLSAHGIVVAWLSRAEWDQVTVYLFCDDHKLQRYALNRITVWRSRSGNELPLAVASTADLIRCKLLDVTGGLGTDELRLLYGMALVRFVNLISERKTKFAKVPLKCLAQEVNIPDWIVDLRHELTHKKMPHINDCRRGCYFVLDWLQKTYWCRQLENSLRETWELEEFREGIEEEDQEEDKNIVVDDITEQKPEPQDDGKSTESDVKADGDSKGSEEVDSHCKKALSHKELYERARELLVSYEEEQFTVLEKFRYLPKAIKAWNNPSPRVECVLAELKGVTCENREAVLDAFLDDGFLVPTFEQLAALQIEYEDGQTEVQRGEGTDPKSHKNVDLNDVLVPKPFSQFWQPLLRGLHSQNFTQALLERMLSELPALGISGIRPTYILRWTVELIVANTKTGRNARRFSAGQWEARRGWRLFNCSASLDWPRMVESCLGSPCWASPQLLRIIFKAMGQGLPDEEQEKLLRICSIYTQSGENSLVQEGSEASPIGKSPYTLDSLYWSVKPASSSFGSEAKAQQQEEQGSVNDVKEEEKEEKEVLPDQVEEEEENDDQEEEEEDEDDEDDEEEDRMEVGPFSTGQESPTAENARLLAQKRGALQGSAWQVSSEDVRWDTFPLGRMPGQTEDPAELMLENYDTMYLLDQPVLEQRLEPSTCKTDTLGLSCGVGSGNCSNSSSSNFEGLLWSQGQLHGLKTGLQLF

Measured: binding

B1: endogenous USP36 (enzyme, UniProt Q9P275 1-1123)
chain: MPIVDKLKEALKPGRKDSADDGELGKLLASSAKKVLLQKIEFEPASKSFSYQLEALKSKYVLLNPKTEGASRHKSGDDPPARRQGSEHTYESCGDGVPAPQKVLFPTERLSLRWERVFRVGAGLHNLGNTCFLNATIQCLTYTPPLANYLLSKEHARSCHQGSFCMLCVMQNHIVQAFANSGNAIKPVSFIRDLKKIARHFRFGNQEDAHEFLRYTIDAMQKACLNGCAKLDRQTQATTLVHQIFGGYLRSRVKCSVCKSVSDTYDPYLDVALEIRQAANIVRALELFVKADVLSGENAYMCAKCKKKVPASKRFTIHRTSNVLTLSLKRFANFSGGKITKDVGYPEFLNIRPYMSQNNGDPVMYGLYAVLVHSGYSCHAGHYYCYVKASNGQWYQMNDSLVHSSNVKVVLNQQAYVLFYLRIPGSKKSPEGLISRTGSSSLPGRPSVIPDHSKKNIGNGIISSPLTGKRQDSGTMKKPHTTEEIGVPISRNGSTLGLKSQNGCIPPKLPSGSPSPKLSQTPTHMPTILDDPGKKVKKPAPPQHFSPRTAQGLPGTSNSNSSRSGSQRQGSWDSRDVVLSTSPKLLATATANGHGLKGNDESAGLDRRGSSSSSPEHSASSDSTKAPQTPRSGAAHLCDSQETNCSTAGHSKTPPSGADSKTVKLKSPVLSNTTTEPASTMSPPPAKKLALSAKKASTLWRATGNDLRPPPPSPSSDLTHPMKTSHPVVASTWPVHRARAVSPAPQSSSRLQPPFSPHPTLLSSTPKPPGTSEPRSCSSISTALPQVNEDLVSLPHQLPEASEPPQSPSEKRKKTFVGEPQRLGSETRLPQHIREATAAPHGKRKRKKKKRPEDTAASALQEGQTQRQPGSPMYRREGQAQLPAVRRQEDGTQPQVNGQQVGCVTDGHHASSRKRRRKGAEGLGEEGGLHQDPLRHSCSPMGDGDPEAMEESPRKKKKKKRKQETQRAVEEDGHLKCPRSAKPQDAVVPESSSCAPSANGWCPGDRMGLSQAPPVSWNGERESDVVQELLKYSSDKAYGRKVLTWDGKMSAVSQDAIEDSRQARTETVVDDWDEEFDRGKEKKIKKFKREKRRNFNAFQKLQTRRNFWSVTHPAKAASLSYRR
binds: [1] | [2] | [3] | [4]
